Tested on: V. vinifera cv. Gamay Red cell culture
Assay: Phe feeding of control, AroG* and AroG* + FLS-22 lines, metabolite levels
Type: cell-based, Vitis vinifera
Conditions: 5 mM Phe feeding, 9 days, compared to non-fed control, mean ± SE, n = 3; for Metabolite level, AroG* + FLS line: line 22

Row | Compound | Metabolite level, AroG* line [fold change] | Metabolite level, Control line [fold change] | Metabolite level, AroG* + FLS line [fold change]
1 | COc1cc(-c2[o+]c3cc(O)cc(O)c3cc2O[C@@H]2O[C@H](COC(C)=O)[C@@H](O)[C@H](O)[C@H]2O)cc(OC)c1O [Malvidin-3-acet-glu, malvidin-3-acetyl-glucoside] | 4.75±0.58 | 0.89±0.12 | 7.06±0.85
2 | COc1cc(-c2[o+]c3cc(O)cc(O)c3cc2O[C@@H]2O[C@H](CO)[C@@H](O)[C@H](O)[C@H]2O)cc(OC)c1O [Malvidin-3-glu, malvidin-3-glucoside] | 6.82±0.48 | 1.83±0.36 | 9.63±0.54
3 | COc1cc(-c2[o+]c3cc(O)cc(O)c3cc2O[C@@H]2O[C@H](CO)[C@@H](O)[C@H](O)[C@H]2O)ccc1O [Peonidin-3-glu, peonidin-3-glucoside] | 1.68±0.12 | 1.3±0.11 | 2.31 ±0.17
4 | Oc1cc(O)c2c(c1)O[C@H](c1ccc(O)c(O)c1)[C@H](O)[C@H]2c1c(O)cc(O)c2c1O[C@H](c1ccc(O)c(O)c1)[C@H](O)C2 [Procyanidin B2, procyanidin B2] | 1.37±0.24 | 0.9±0.07 | 2.05±0.44
5 | Oc1cc(O)c2c(c1)O[C@H](c1ccc(O)c(O)c1)[C@H](O)[C@H]2c1c(O)cc(O)c2c1O[C@H](c1ccc(O)c(O)c1)[C@@H](O)C2 [Procyanidin B 1, procyanidin B1] | 0.97±0.04 | 1.28±0.14 | 1.4±0.31
6 | O=c1c(O[C@@H]2O[C@H](CO)[C@@H](O)[C@H](O)[C@H]2O)c(-c2ccc(O)c(O)c2)oc2cc(O)cc(O)c12 [Quercetin-3-glu, quercetin-3-glucoside] | 1.16±0.1 | 0.86±0.05 | 2.87±0.26
7 | N[C@@H](Cc1c[nH]c2ccccc12)C(=O)O [Trp, Tryptophan] | 3.02±0.05 | 0.81±0.12 | 6.68±0.87
8 | malvidin-3-coumaroyl-glucoside [Malvidin-3-coum-glu] | 6.6±0.76 | 1.07±0.16 | 11.55±1.84
